Reference: article PMC11596630 (Molecules, 2024)

Test system: SH-SY5Y cells
Assay: Cytotoxicity MTS assay, SH-SY5Y
Assay type: cell-based
Conditions: ratio of toxicity towards neuronal cells and inhibition potency towards BChE
Procedure: HepG2 and HEK293 cells were grown in EMEM and SH-SY5Y in DMEM-F12, as described previously, and cell cultivation and maintenance were conducted according to standard protocol. All media and supplements were purchased from Sigma-Aldrich, Steinheim, Germany.
The cytotoxic profiles of tested compounds were determined by measuring the succinate dehydrogenase mitochondrial activity of exposed cells. The commercially available MTS detection reagent assay (CellTiter 96® AQueous One Solution Cell Proliferation Assay, Promega, Madison, WI, USA) was used. The procedure followed a previously described protocol. Cells were exposed to compounds in a concentration range of 0.01–1000 µM for 24 h. DMSO (20%) was used as positive control to validate the method. After desired time of incubation at 37 °C in a 5% CO2 atmosphere, cells were washed with PBS buffer and 100 µL of EMEM or DMEM medium and 20 µL of MTS were added in each well, incubated up to 1 h after which the absorbance was read at 492 nm on an Infinite M200PRO plate reader (Tecan Austria GmbH, Salzburg, Austria). Data are presented as percentages of the inhibited cells to control untreated cells, i.e., the percentage of cytotoxicity.

SMILES | IC50 (SH-SY5Y)/Ki(BChE)
CCN(CC)Cc1cc(Nc2ccnc3ccc(C(F)(F)F)cc23)ccc1O [Compound 9] | ≥ 50
CCN(CC)Cc1cc(Nc2ccnc3ccccc23)ccc1O [Compound 6] | ≥ 50
CCN(CC)Cc1cc(Nc2ccnc3cc(C(F)(F)F)ccc23)ccc1O [Compound 2] | ≥ 50
CCN(CCO)Cc1cc(Nc2ccnc3cc(Cl)ccc23)ccc1O [Compound 14] | ≥ 50
